The experiment has as its target human CLEC-2 (C-type lectin-like receptor 2) (human) (UniProt Q9P126). The experiment can be described thus: column 'CLEC-2 binding' of the summary Table 10.

Sequences of proteins named here, by UniProt entry; tags and fusion partners are left off. A change or cut given only in a name is not applied to a line headed by its entry.
UniProt Q9P126: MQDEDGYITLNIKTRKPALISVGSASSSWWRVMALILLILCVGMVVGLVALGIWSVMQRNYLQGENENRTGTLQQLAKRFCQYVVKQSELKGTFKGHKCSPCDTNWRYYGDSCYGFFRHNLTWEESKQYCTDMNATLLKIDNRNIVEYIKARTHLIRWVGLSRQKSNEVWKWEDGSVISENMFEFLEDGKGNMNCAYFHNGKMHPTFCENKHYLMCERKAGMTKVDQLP
UniProt Q9I841: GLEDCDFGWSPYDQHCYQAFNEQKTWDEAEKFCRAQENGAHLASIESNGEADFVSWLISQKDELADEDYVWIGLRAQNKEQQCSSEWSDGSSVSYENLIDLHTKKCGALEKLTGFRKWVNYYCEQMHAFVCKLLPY

These are yes or no findings as the source states them, for the method shown. Some results given as binding are weak or reduced against the parent protein; the word gives no strength.

Regarding “wild-type rhodocytin derived from recombinant cell No. 1 ([βS]-[α subunit]/pCMV and [βS]-[β subunit]/pCMV in CHO cells) (from UniProt Q9I841 1-136; Q9I840 24-146) (ligand)”, the binding entry is “binds”.

The record behind these values is US20170320924A1 (UNIVERSITY OF YAMANASHI, published 2017).
